No constants are given. Whether binding was seen depends on the method and setting. Binding seen in cells or lysates may run through a third protein. These calls come from enrichment with a bait or labelling near it, and not all partners need be listed. Sequences can lack the tags named with a protein.
T1: Flag-hemagglutinin (HA)-tagged transglutaminase type 2 (human) (UniProt P21980)
T1 sequence: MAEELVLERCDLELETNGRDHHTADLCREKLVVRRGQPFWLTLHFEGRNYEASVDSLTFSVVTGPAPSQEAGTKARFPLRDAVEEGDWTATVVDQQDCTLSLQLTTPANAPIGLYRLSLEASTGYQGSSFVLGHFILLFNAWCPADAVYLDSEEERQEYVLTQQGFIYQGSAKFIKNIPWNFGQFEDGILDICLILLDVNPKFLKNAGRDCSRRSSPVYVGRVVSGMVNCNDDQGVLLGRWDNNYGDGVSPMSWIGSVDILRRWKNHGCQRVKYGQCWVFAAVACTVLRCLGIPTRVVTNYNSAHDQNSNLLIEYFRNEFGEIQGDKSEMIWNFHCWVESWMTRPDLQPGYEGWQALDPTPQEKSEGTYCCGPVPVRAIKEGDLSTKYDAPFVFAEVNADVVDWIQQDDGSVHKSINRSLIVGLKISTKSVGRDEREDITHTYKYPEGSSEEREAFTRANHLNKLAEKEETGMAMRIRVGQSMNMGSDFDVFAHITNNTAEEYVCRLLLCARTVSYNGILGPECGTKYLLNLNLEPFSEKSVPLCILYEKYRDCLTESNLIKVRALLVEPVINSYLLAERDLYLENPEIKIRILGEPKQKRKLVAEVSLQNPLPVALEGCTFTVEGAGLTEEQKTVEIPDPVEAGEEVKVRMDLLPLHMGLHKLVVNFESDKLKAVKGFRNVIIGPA

By UniProt entry, the sequences of proteins in these tests, tags left out. Residues count along the entry.
UniProt P07437: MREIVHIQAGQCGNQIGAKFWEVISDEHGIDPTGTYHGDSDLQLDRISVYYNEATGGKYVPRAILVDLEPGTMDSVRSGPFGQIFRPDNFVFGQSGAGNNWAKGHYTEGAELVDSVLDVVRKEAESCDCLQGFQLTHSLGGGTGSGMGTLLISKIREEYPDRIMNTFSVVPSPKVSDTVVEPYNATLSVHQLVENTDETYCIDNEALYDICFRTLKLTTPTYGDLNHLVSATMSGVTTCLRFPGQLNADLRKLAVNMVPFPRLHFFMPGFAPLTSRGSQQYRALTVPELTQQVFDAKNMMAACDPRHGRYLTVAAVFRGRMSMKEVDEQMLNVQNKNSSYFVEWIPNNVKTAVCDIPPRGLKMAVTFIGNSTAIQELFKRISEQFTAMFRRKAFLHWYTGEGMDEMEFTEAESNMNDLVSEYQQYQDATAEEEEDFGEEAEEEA
UniProt P11142: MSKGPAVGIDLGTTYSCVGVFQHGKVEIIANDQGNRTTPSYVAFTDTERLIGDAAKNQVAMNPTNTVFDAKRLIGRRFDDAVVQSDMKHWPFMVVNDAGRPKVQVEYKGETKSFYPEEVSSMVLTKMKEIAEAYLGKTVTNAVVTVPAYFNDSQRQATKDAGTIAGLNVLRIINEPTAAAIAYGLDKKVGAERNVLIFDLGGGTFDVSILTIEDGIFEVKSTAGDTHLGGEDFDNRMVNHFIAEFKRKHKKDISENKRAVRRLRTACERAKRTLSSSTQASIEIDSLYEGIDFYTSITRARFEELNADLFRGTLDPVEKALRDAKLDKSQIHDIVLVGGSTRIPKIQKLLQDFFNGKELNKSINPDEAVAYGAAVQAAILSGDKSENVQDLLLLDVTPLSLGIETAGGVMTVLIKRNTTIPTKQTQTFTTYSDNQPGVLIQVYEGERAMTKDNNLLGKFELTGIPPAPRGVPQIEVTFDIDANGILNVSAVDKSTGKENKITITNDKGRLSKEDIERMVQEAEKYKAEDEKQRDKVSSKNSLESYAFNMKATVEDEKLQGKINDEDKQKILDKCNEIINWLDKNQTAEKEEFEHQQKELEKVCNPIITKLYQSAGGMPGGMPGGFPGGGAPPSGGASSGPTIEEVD
UniProt O95816: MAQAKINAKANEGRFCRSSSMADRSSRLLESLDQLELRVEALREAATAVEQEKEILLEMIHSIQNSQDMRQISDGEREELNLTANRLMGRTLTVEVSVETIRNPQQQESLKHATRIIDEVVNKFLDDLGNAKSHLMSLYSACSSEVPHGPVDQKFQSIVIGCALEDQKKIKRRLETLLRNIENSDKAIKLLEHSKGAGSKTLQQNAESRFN
UniProt Q99816: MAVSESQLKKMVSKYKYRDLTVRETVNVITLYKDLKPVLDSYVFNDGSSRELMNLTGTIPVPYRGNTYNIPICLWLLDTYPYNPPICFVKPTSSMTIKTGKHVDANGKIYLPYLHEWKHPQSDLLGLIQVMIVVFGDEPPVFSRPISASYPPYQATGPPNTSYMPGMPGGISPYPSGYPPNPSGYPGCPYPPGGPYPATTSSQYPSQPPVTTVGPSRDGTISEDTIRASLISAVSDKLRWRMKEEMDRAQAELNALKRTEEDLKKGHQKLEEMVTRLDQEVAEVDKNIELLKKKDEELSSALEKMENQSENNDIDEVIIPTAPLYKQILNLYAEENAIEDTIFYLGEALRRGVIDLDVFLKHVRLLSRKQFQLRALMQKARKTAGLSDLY
UniProt Q9NY65: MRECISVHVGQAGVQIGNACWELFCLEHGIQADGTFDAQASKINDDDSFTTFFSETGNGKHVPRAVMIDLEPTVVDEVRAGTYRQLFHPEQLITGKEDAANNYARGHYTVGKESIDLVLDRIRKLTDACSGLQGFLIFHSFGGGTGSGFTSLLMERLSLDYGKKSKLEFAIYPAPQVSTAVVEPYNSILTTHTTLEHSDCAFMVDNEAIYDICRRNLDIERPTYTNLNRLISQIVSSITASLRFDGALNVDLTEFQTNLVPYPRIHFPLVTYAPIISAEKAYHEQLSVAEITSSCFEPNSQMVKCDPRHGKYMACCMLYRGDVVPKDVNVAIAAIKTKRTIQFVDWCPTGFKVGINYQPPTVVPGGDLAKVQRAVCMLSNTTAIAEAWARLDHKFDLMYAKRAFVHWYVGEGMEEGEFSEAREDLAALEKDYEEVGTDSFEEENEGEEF
UniProt P25705, residues 44-553: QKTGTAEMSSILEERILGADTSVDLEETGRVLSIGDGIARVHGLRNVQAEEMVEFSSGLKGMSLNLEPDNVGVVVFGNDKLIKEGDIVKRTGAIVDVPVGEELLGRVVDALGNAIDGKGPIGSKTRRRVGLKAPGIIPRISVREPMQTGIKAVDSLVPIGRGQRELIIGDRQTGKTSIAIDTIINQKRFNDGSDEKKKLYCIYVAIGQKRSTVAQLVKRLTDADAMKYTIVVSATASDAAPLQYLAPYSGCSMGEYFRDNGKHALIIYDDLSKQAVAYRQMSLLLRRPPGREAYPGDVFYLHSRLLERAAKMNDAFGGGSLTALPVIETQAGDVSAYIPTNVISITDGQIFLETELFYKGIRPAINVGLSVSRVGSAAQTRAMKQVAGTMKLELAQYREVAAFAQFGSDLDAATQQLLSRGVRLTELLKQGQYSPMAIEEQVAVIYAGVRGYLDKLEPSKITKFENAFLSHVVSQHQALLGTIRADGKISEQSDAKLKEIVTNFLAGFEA
UniProt P68104: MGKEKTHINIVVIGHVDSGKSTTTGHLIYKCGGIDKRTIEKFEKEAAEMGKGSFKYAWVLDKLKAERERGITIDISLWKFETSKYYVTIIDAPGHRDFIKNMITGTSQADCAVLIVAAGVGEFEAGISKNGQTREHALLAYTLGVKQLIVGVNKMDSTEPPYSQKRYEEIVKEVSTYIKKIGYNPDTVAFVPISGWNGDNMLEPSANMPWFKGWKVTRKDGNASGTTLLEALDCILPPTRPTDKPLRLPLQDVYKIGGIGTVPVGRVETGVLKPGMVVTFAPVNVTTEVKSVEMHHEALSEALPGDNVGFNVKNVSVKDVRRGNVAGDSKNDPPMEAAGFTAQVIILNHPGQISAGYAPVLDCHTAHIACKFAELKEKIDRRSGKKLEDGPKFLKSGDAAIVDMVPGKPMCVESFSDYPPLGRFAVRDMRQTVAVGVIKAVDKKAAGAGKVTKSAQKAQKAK
UniProt Q9BQE3: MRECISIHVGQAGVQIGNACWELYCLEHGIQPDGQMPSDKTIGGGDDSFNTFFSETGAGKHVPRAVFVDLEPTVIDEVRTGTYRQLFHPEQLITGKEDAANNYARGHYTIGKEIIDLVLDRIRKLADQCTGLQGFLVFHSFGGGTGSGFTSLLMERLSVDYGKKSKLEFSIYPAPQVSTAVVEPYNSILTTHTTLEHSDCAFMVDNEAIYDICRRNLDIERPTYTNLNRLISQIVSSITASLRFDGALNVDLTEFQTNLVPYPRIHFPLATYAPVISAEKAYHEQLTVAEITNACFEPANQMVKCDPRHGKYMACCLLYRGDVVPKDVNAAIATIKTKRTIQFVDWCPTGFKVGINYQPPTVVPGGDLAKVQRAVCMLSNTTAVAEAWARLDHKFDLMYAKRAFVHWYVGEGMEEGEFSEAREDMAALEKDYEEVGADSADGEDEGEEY
UniProt P04406: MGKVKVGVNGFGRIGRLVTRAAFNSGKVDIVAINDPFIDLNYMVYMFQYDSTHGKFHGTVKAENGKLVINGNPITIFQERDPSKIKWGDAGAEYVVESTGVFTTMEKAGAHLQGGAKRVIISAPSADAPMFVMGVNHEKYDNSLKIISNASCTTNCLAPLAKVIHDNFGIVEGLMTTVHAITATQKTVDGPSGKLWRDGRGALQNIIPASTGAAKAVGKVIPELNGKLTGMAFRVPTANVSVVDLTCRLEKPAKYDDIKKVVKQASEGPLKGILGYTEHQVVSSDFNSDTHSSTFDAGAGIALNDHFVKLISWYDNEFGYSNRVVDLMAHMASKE
UniProt P17066: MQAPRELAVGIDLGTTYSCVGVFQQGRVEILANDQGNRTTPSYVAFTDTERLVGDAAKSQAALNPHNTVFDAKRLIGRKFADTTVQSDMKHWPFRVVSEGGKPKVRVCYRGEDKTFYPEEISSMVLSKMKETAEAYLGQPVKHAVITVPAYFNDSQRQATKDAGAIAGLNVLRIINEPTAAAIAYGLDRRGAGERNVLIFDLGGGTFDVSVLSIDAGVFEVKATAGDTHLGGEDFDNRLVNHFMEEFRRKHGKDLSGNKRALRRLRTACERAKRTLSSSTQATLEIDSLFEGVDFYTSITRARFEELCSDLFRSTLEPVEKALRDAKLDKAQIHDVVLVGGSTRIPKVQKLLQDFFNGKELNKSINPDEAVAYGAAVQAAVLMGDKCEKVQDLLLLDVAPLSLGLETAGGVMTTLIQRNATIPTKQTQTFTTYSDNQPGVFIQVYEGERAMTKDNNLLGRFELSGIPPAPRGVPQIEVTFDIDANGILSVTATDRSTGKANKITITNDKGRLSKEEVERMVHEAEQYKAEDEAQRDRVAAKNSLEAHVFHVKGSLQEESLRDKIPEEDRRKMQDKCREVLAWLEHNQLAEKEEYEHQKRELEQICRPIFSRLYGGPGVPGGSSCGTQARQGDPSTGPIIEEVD
UniProt P11021, residues 19-654: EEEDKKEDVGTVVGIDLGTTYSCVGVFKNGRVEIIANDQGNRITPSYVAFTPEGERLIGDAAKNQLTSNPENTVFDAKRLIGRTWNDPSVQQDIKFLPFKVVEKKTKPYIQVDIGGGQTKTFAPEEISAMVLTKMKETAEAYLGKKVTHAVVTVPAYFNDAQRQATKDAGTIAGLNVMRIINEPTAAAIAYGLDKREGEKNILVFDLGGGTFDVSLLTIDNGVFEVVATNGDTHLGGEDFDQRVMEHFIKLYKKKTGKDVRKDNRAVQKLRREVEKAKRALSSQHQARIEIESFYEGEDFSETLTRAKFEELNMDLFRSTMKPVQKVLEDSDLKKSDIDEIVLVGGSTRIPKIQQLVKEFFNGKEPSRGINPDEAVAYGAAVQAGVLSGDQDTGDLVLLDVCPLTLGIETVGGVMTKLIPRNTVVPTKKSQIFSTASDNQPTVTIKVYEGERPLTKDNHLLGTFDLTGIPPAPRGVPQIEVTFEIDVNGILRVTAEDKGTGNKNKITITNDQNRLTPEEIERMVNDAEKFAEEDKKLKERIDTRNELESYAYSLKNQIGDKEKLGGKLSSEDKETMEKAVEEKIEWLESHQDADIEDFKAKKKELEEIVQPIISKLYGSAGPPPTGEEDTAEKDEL
UniProt Q9NR12: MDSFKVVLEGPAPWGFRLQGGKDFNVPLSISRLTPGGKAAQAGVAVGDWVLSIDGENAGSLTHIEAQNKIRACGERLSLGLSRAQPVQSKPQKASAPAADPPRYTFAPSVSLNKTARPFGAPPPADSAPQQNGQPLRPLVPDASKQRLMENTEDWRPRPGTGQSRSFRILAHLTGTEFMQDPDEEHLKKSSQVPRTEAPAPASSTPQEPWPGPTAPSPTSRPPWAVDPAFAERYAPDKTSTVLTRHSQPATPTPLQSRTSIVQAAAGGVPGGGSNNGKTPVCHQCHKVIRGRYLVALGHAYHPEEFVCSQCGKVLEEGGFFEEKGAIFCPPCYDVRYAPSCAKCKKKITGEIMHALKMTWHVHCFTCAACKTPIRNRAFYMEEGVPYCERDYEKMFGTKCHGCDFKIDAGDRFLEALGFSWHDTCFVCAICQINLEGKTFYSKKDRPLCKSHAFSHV
UniProt P38646, residues 47-679: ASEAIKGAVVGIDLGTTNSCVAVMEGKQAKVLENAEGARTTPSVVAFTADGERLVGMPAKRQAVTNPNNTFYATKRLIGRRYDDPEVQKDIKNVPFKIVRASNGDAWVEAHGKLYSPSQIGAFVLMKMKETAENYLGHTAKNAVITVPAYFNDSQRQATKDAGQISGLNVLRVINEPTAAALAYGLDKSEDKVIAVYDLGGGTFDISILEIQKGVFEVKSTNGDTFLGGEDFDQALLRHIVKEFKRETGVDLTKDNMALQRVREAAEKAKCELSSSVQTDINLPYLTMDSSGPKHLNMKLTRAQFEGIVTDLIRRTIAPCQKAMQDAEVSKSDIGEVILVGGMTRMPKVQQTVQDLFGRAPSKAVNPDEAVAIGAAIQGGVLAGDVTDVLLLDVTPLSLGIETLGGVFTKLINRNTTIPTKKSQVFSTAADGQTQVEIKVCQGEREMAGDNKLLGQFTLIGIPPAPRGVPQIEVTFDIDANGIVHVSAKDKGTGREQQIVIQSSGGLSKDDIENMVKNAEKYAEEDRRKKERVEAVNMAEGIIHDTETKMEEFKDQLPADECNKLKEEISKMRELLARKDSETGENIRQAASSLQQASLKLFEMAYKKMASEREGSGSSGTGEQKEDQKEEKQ
UniProt P12235: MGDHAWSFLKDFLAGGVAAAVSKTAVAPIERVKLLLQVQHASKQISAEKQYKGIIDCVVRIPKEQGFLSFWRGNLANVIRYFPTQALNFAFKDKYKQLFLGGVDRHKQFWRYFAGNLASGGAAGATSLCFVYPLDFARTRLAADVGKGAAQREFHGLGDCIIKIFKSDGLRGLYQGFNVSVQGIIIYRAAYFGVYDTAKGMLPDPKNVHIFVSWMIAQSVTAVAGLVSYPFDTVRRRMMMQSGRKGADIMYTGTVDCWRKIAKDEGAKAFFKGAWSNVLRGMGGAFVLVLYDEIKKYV

B1: solute carrier family 25 (mitochondrial carrier; adenine nucleotide translocator), member 6 [Homo sapiens] (protein, UniProt P12236 1-298)
chain: MTEQAISFAKDFLAGGIAAAISKTAVAPIERVKLLLQVQHASKQIAADKQYKGIVDCIVRIPKEQGVLSFWRGNLANVIRYFPTQALNFAFKDKYKQIFLGGVDKHTQFWRYFAGNLASGGAAGATSLCFVYPLDFARTRLAADVGKSGTEREFRGLGDCLVKITKSDGIRGLYQGFSVSVQGIIIYRAAYFGVYDTAKGMLPDPKNTHIVVSWMIAQTVTAVAGVVSYPFDTVRRRMMMQSGRKGADIMYTGTVDCWRKIFRDEGGKAFFKGAWSNVLRGMGGAFVLVLYDELKKVI
B2: DnaJ (Hsp40) homolog, subfamily C, member 7 [Homo sapiens] (protein, UniProt Q99615 1-494)
chain: MAAAAECDVVMAATEPELLDDQEAKREAETFKEQGNAYYAKKDYNEAYNYYTKAIDMCPKNASYYGNRAATLMMLGRFREALGDAQQSVRLDDSFVRGHLREGKCHLSLGNAMAACRSFQRALELDHKNAQAQQEFKNANAVMEYEKIAETDFEKRDFRKVVFCMDRALEFAPACHRFKILKAECLAMLGRYPEAQSVASDILRMDSTNADALYVRGLCLYYEDCIEKAVQFFVQALRMAPDHEKACIACRNAKALKAKKEDGNKAFKEGNYKLAYELYTEALGIDPNNIKTNAKLYCNRGTVNSKLRKLDDAIEDCTNAVKLDDTYIKAYLRRAQCYMDTEQYEEAVRDYEKVYQTEKTKEHKQLLKNAQLELKKSKRKDYYKILGVDKNASEDEIKKAYRKRALMHHPDRHSGASAEVQKEEEKKFKEVGEAFTILSDPKKKTRYDSGQDLDEEGMNMGDFDPNNIFKAFFGGPGGFSFEASGPGNFFFQFG

What follows are molecules tested against T1, Flag-hemagglutinin (HA)-tagged transglutaminase type 2 (human) (assay: affinity purification with mass spectrometry; tandem affinity purification (Flag agarose, Flag peptide elution, then HA agarose, glycine elution) of Flag-HA-TG2 from 2fTGH lysates (10 mM Tris, 50 mM NaCl, 10% glycerol, 0.5% NP40); cells at steady state or starved for 2 h (autophagy); HPLC and MALDI TOF/TOF).

| Molecule | binding |
| --- | --- |
| TUBB [Homo sapiens] (from UniProt P07437 1-444) | binds |
| ADP.ATP translocase (human (endogenous in 2fTGH)) | binds |
| tubulin beta (human (endogenous in 2fTGH)) | binds |
| Hsc70 (from UniProt P11142 1-646) | binds |
| BAG2 [Homo sapiens] (from UniProt O95816 1-211) | binds |
| tubulin beta chain - human | binds |
| stress-induced-phosphoprotein 1 (Hsp70/Hsp90-organizing protein) [Homo sapiens] (from UniProt P31948 1-543) | binds |
| TSG101 (from UniProt Q99816 1-390) | binds |
| TUBA8 [Homo sapiens] (from UniProt Q9NY65 1-449) | binds |
| Similar to ATP synthase, H+ transporting, mitochondrial F1 complex, alpha subunit, isoform 1 (from UniProt P25705 44-553) | binds |
| EEF1A1 protein [Homo sapiens] (from UniProt P68104 1-462) | binds |
| Tubulin alpha 6 [Homo sapiens] (from UniProt Q9BQE3 1-449) | binds |
| DnaJ protein homolog [Homo sapiens] (from UniProt P31689 1-397) | binds |
| glyceraldehyde-3-phosphate dehydrogenase [Homo sapiens] (from UniProt P04406 1-335) (enzyme) | binds |
| dnaK-type molecular chaperone HSPA6 - human (from UniProt P17066 1-643) | binds |
| BiP protein [Homo sapiens] (from UniProt P11021 19-654) | binds |
| tubulin alpha-1 chain - human | binds |
| enigma protein isoform 1 [Homo sapiens] (from UniProt Q9NR12 1-457) | binds |
| beta-tubulin 4Q [Homo sapiens] (human) | binds |
| heat shock 70kDa protein 9B precursor [Homo sapiens] (from UniProt P38646 47-679) | binds |
| enigma - human (from UniProt Q9NR12 1-457) | binds |
| solute carrier family 25 (mitochondrial carrier; adenine nucleotide translocator), member 4 [Homo sapiens] (from UniProt P12235 1-298) | binds |
| Tubulin, beta 2 [Homo sapiens] (human) | binds |
| B1 | binds |
| B2 | binds |

From publication PMC4792602
